# Assay results from PMC7495824.
# Sequences of proteins named here, by UniProt entry; tags and fusion partners are left off.
# UniProt P97801: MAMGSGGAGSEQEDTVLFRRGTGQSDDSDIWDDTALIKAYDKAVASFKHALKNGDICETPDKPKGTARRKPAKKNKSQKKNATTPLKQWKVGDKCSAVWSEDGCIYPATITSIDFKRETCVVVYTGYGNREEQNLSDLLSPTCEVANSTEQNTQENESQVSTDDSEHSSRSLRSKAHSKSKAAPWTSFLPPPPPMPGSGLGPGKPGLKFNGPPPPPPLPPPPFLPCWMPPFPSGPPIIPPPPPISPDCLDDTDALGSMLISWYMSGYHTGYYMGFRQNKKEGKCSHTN
# UniProt Q16637: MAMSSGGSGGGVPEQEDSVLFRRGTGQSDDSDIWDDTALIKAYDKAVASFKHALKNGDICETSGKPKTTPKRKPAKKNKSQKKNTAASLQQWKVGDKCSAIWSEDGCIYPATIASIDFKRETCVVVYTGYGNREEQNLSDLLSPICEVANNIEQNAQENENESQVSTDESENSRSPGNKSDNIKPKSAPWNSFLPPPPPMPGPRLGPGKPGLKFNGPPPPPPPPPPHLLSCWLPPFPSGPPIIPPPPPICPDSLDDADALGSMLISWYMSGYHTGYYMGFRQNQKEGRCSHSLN
# These are yes or no findings as the source states them, for the method shown. In cells and extracts the contact can be indirect. Some results given as binding are weak or reduced against the parent protein; the word gives no strength. For part of these data: Sequences can lack the tags named with a protein.
# T1: GFP-tagged human hnRNP F (human) (UniProt P52597)
# T1 sequence: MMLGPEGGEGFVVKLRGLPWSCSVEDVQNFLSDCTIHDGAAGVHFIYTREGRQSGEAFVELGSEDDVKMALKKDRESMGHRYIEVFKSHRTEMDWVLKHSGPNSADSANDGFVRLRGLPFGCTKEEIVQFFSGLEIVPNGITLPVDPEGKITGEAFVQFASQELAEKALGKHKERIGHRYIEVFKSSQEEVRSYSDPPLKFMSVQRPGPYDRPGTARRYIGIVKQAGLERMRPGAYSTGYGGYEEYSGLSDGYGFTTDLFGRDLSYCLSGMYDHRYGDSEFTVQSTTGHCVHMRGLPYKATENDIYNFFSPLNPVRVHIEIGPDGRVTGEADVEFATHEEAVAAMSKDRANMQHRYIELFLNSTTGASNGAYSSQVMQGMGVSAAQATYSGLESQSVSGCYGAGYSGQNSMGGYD
# T2: GFP-tagged human hnRNP H2 (human) (UniProt P55795)
# T2 sequence: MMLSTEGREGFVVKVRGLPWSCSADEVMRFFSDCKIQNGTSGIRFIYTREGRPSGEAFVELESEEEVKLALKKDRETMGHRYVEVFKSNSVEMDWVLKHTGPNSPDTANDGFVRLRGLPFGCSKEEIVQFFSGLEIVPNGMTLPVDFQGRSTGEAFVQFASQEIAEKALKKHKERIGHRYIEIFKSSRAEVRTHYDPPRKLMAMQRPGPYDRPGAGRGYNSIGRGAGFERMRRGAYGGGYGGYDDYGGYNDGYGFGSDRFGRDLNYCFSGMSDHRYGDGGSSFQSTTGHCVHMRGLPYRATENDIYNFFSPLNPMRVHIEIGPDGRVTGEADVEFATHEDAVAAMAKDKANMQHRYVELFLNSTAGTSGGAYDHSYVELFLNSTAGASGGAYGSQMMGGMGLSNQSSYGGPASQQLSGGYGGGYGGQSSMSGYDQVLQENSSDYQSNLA
# T3: endogenous mouse Plastin 3 (mouse (endogenous in mouse brain)) (UniProt Q99K51)
# T3 sequence: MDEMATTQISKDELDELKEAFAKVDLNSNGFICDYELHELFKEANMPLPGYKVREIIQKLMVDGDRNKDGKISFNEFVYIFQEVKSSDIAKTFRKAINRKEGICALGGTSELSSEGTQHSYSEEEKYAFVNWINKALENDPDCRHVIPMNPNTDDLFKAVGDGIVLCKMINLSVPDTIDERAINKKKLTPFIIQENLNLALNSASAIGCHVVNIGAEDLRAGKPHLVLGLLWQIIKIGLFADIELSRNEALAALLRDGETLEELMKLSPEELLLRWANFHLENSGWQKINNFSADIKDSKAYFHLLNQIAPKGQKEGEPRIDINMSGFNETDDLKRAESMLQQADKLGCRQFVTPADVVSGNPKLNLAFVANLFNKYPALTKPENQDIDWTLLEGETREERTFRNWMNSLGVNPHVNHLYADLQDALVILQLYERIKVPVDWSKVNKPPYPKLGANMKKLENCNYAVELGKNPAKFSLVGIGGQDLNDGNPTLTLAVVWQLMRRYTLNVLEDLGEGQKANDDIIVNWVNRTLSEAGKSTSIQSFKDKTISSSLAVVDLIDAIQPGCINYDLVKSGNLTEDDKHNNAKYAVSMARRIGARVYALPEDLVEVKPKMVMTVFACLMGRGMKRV
# Experiments:
# [1] = target: T1, GFP-tagged human hnRNP F (human); experiment: co-IP; GFP MicroBeads (Miltenyi) IP of GFP-tagged hnRNP F or hnRNP H1/2 from lysate of co-transfected HEK293T cells; IP lysis buffer 100 mM NaCl, 50 mM Tris, 5 mM EGTA, 1% CHAPS, pH 7.5; 2 h at 4 °C; Western blot; also with 100 μg/ml RNase A in the lysis buffer (associations maintained)
# [2] = target: T2, GFP-tagged human hnRNP H2 (human); experiment: as above
# [3] = target: endogenous mouse SMN (mouse (endogenous in mouse brain)) (UniProt P97801); experiment: co-IP; endogenous proteins from whole adult mouse brain lysate (RIPA buffer); 750 μg lysate with 2 μg antibody against SMN or against PLS3, protein G beads, 4 °C; Western blot
# [4] = target: T3, endogenous mouse Plastin 3 (mouse (endogenous in mouse brain)); experiment: as above
molecule,measurement,setting,value
V5-tagged human SMN (from UniProt Q16637 1-294),binding,[1],binds
same,binding,[2],binds
"Flag-tagged human Plastin 3 (protein, UniProt P13797 1-630) MDEMATTQISKDELDELKEAFAKVDLNSNGFICDYELHELFKEANMPLPGYKVREIIQKLMLDGDRNKDGKISFDEFVYIFQEVKSSDIAKTFRKAINRKEGICALGGTSELSSEGTQHSYSEEEKYAFVNWINKALENDPDCRHVIPMNPNTDDLFKAVGDGIVLCKMINLSVPDTIDERAINKKKLTPFIIQENLNLALNSASAIGCHVVNIGAEDLRAGKPHLVLGLLWQIIKIGLFADIELSRNEALAALLRDGETLEELMKLSPEELLLRWANFHLENSGWQKINNFSADIKDSKAYFHLLNQIAPKGQKEGEPRIDINMSGFNETDDLKRAESMLQQADKLGCRQFVTPADVVSGNPKLNLAFVANLFNKYPALTKPENQDIDWTLLEGETREERTFRNWMNSLGVNPHVNHLYADLQDALVILQLYERIKVPVDWSKVNKPPYPKLGANMKKLENCNYAVELGKHPAKFSLVGIGGQDLNDGNQTLTLALVWQLMRRYTLNVLEDLGDGQKANDDIIVNWVNRTLSEAGKSTSIQSFKDKTISSSLAVVDLIDAIQPGCINYDLVKSGNLTEDDKHNNAKYAVSMARRIGARVYALPEDLVEVKPKMVMTVFACLMGRGMKRV",binding,[1],binds
same,binding,[2],binds
"endogenous mouse hnRNP F (protein, UniProt Q9Z2X1 1-415) MMLGPEGGEGYVVKLRGLPWSCSIEDVQNFLSDCTIHDGVAGVHFIYTREGRQSGEAFVELESEDDVKLALKKDRESMGHRYIEVFKSHRTEMDWVLKHSGPNSADSANDGFVRLRGLPFGCTKEEIVQFFSGLEIVPNGITLPVDPEGKITGEAFVQFASQELAEKALGKHKERIGHRYIEVFKSSQEEVRSYSDPPLKFMSVQRPGPYDRPGTARRYIGIVKQAGLDRMRSGAYSAGYGGYEEYSGLSDGYGFTTDLFGRDLSYCLSGMYDHRYGDSEFTVQSTTGHCVHMRGLPYKATENDIYNFFSPLNPVRVHIEIGPDGRVTGEADVEFATHEEAVAAMSKDRANMQHRYIELFLNSTTGASNGAYSSQVMQGMGVSAAQATYSGLESQSVSGCYGAGYSGQNSMGGYD",binding,[3],binds
same,binding,[4],binds
